Article PMC12809450
For at least one entry, the source does not settle the construct or the ends of the probe.

System: PhiKZ nvRNAP sigma-like subunit GP68 + PhiKZ nvRNAP beta-like subunit GP123 + PhiKZ nvRNAP beta-like subunit GP71-73 + PhiKZ nvRNAP beta'-like subunit GP55 + PhiKZ nvRNAP beta'-like subunit GP74
Experiment: cryo-EM structure (2.59 A)
Settings: 5 mM MgCl2, equimolar DNA, no RNA, 20 mM Tris-HCl pH 8.0, 5 mM MgCl2, 2.5 mM TCEP, 0.1 mg/ml nvRNAP (diluted from 200 mM NaCl TGED), 20 min at 2 C, recombinant protein

Does “ATGAGTAATTTTAGTGAATGTATTTGCTATATTGCTATGTAGACAGTTCCCAAAAGCCTAAAGTTACAATATAGG / CCTATATTGTAACTTTAGGCTTTTGGGAACTCCTCTCATATTCCCATAGCAAATACATTCACTAAAATTACTCAT [p119L double-bubble open promoter analogue (-38 to +37)]” bind?
Result: binds
